The source of these data is the supplement of paper PMC10849652.

Sequences of proteins named here, by UniProt entry; tags and fusion partners are left off. A change or cut given only in a name is not applied to a line headed by its entry.
UniProt Q96K31: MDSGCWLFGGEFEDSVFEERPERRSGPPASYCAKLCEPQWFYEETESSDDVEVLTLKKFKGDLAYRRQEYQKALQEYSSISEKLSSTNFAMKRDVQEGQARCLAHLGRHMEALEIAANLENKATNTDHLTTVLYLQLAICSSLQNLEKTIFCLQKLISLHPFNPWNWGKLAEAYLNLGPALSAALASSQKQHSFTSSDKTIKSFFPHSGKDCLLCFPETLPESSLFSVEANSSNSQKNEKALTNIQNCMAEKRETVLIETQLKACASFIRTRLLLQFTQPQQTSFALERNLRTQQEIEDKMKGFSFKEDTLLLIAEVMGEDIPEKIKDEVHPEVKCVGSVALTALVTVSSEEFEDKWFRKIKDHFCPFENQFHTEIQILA
UniProt Q6UWU4: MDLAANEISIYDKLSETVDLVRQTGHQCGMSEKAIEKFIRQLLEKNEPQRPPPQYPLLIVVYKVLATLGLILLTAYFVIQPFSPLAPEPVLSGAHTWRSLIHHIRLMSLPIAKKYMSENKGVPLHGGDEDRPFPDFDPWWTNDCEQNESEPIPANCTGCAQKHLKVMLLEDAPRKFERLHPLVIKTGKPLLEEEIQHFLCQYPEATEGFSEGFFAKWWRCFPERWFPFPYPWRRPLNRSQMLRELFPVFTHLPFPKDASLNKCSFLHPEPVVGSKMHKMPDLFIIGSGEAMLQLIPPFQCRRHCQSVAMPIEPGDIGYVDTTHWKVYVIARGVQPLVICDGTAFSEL
UniProt Q9P1Z2: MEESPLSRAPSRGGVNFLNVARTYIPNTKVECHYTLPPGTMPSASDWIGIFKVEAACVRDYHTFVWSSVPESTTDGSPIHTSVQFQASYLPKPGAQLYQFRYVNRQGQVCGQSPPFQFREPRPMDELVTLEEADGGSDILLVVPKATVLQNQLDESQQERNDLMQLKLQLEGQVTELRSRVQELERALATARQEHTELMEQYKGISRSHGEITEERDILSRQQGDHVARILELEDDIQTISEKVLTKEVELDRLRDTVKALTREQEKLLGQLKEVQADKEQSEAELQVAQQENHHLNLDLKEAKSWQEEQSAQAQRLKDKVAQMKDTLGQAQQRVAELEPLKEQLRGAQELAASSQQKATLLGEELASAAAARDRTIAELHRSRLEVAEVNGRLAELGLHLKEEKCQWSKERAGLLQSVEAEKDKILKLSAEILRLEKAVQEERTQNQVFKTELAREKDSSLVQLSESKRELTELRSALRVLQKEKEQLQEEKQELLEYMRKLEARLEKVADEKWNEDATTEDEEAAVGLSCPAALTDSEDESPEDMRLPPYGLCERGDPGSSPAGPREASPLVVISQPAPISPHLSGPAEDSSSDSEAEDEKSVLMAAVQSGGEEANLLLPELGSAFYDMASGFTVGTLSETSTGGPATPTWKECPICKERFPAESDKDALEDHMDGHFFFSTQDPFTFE
UniProt O43852: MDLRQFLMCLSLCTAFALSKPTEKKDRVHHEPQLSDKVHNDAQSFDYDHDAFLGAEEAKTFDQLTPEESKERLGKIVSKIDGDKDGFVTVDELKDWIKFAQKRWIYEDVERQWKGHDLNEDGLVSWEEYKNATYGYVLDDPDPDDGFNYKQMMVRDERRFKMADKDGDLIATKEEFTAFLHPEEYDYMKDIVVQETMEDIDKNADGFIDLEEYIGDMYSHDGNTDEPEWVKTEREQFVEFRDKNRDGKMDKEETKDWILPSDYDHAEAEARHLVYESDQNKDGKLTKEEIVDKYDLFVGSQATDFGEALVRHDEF
UniProt Q96EU7: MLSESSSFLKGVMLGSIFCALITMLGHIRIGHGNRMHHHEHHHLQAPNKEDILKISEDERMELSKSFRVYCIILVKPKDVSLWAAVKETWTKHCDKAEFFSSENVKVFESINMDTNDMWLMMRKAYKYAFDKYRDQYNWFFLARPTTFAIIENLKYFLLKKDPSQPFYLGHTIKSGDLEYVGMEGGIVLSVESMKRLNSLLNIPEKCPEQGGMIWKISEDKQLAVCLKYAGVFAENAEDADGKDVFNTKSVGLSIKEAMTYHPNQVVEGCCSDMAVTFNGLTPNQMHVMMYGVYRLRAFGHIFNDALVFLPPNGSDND
UniProt Q8IXQ3: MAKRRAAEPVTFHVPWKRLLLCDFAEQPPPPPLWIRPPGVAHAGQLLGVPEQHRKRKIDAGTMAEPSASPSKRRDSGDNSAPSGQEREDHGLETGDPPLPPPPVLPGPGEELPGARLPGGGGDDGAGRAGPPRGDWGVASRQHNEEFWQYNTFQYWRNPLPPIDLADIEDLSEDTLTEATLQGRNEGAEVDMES
UniProt Q14444, whole entry, looked up: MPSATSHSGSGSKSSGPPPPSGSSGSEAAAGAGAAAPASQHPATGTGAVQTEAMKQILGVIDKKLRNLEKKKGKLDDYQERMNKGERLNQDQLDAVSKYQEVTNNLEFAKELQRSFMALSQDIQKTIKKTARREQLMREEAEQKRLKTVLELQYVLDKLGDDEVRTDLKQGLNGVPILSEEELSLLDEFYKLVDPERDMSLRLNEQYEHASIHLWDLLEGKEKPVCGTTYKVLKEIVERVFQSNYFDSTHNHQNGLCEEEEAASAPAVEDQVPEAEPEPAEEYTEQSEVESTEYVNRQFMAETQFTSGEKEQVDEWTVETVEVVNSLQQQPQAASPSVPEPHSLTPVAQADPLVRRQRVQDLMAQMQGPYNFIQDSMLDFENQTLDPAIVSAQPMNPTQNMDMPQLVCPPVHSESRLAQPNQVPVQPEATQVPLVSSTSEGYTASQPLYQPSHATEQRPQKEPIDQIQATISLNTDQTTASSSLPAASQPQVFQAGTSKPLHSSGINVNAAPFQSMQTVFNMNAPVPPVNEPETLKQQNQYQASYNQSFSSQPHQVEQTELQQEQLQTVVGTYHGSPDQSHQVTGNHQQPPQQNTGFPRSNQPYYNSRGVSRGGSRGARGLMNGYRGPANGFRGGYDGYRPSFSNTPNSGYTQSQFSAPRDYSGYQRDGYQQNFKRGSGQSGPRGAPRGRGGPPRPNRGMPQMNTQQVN
UniProt Q8WUQ7: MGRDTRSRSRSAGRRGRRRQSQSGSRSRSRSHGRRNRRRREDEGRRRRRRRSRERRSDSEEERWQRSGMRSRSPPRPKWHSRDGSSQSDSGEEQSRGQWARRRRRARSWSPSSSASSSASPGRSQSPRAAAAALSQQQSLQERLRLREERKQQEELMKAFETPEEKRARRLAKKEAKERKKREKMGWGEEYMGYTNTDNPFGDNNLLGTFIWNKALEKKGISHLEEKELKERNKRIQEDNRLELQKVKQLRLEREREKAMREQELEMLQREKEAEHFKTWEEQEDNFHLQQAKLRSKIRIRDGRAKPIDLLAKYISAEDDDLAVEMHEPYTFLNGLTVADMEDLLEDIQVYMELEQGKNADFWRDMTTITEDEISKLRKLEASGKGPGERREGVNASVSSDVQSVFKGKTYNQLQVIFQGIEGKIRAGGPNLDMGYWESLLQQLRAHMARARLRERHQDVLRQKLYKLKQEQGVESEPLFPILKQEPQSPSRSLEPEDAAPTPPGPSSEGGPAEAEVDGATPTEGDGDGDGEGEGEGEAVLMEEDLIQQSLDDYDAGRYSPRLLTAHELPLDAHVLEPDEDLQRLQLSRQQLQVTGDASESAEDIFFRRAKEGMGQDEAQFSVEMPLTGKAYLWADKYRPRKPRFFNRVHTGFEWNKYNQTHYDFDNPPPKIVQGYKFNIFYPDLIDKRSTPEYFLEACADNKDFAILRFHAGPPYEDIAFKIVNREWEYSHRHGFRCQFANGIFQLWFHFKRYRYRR
UniProt Q9NS00: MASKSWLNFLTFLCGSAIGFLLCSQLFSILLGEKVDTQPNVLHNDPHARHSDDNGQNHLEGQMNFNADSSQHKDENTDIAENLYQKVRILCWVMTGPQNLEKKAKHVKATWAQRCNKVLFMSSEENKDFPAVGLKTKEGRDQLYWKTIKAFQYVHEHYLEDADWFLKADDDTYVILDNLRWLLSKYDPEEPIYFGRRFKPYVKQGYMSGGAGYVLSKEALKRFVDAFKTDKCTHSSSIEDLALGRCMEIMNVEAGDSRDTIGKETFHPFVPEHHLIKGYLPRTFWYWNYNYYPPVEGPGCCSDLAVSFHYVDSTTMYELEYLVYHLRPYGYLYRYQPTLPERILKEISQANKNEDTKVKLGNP
UniProt Q96LW7: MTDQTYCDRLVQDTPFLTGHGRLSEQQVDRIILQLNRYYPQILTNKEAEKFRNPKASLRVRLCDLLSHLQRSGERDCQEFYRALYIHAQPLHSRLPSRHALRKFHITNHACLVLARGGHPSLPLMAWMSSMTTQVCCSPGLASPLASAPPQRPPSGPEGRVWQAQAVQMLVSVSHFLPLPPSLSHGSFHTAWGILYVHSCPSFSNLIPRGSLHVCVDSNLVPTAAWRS
UniProt Q9BSJ5: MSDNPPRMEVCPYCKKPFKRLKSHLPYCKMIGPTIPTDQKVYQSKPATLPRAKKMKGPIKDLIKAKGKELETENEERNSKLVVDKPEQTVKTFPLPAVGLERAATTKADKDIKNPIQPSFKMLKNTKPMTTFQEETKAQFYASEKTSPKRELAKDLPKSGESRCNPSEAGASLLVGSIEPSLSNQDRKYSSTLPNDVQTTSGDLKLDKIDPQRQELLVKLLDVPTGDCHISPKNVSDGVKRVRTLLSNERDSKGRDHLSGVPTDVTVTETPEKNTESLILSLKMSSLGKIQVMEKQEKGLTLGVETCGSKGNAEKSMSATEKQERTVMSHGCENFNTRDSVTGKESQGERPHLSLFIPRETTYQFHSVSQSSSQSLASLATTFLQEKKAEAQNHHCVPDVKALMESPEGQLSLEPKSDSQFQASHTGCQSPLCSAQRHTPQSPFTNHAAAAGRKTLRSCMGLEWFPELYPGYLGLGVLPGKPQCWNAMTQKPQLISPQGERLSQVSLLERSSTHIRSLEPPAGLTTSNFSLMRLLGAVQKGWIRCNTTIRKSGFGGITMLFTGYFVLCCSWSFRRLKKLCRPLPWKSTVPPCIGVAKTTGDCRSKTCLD
UniProt Q8N999, whole entry, looked up: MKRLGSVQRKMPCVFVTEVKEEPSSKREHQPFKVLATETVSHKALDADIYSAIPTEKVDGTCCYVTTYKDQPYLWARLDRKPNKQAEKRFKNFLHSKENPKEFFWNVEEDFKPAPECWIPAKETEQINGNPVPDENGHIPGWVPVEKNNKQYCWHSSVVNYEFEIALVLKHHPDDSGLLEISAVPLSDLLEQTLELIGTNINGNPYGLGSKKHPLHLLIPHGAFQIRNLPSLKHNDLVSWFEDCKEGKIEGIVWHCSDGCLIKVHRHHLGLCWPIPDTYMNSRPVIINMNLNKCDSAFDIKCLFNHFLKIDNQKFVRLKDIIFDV
UniProt Q9Y376: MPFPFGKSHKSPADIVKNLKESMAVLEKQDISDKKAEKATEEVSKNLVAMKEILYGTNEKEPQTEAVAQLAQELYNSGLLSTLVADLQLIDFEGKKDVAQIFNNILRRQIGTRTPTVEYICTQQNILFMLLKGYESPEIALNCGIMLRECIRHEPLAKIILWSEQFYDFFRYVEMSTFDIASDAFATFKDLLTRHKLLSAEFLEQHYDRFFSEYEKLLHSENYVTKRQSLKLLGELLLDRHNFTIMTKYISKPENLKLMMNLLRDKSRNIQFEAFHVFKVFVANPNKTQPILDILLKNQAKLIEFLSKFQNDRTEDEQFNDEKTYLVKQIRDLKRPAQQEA
UniProt Q7KYR7: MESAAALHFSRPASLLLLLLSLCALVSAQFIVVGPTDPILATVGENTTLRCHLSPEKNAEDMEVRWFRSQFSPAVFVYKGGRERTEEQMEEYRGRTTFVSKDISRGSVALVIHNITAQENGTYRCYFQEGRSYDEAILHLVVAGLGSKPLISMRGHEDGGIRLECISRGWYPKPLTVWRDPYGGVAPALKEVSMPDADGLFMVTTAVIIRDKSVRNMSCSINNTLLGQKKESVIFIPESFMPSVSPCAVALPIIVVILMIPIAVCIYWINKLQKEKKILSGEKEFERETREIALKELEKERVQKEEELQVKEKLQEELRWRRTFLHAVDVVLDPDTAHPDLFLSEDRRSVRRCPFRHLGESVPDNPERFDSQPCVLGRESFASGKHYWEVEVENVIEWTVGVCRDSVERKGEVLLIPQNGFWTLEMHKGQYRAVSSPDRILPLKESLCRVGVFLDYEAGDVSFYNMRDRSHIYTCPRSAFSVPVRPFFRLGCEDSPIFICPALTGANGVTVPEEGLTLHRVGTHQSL
UniProt Q9NZ63: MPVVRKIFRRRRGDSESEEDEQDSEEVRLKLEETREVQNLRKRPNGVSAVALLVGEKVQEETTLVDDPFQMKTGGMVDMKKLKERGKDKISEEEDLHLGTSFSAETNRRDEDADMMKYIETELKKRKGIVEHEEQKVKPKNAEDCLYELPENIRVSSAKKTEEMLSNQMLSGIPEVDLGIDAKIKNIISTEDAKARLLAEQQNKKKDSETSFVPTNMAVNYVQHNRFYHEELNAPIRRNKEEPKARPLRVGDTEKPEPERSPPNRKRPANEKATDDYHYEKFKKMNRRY
UniProt Q8N6N3: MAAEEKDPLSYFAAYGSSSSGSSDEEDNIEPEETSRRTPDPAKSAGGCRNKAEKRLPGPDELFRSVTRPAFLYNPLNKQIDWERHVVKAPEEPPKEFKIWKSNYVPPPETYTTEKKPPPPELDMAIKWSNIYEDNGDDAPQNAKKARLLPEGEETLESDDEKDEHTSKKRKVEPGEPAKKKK

This is one part of the list.

Compound in this experiment: Cc1nc(Nc2ncc(C(=O)Nc3c(C)cccc3Cl)s2)cc(N2CCN(CCO)CC2)n1 [dasatinib]
As to the kind of experiment: log2 fold change, soluble protein after heating vs DMSO (PISA); higher = thermal stabilisation; K562 cells, 10 uM, 30 min; active = over 0.2 and 3.5 SD of the protein, either way, in both replicates (recomputed). The essentials:
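K562 cells at 2×10^6 cells/mL were exposed to 10 μM compound for 30 min, then aliquots were heated for 3 min across 48°C-58°C, pooled, and extracted in PBS containing 0.5% NP-40 at 4°C. The supernatant after 21,000xg for 90 min was taken as soluble protein and measured by TMTpro 16plex LC-MS/MS with channel sums equalised. Thermal stability is reported relative to control samples, with values from duplicates. Fold changes are given on a log2 scale.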
Consider C8orf76 (UniProt Q96K31), for which the log2 fold change was inactive: 0.026.

As to C6orf89 isoform 2 (UniProt Q6UWU4), the log2 fold change was inactive: -0.026. For the target CALCOCO1 (UniProt Q9P1Z2), the log2 fold change is inactive: -0.082. The value for CALU isoform 4 (UniProt O43852) was inactive: 0.031; that for C1GALT1C1 (UniProt Q96EU7) was inactive: 0.017. C9orf40 (UniProt Q8IXQ3): the log2 fold change is inactive: -0.055. The value for CAPRIN1 (UniProt Q14444) was inactive: 0.174. In the case of C11orf68 (UniProt Q9H3H3), the log2 fold change is inactive: -0.06. For the target CACTIN isoform 2 (UniProt Q8WUQ7), the log2 fold change was inactive: 0.001. The value for C1GALT1 (UniProt Q9NS00) was inactive: 0.033. Turning to CARD19 isoform 2 (UniProt Q96LW7), the log2 fold change was inactive: -0.018. The value for C17orf80 (UniProt Q9BSJ5) was inactive: -0.055. In the case of CANX isoform 2 (UniProt P27824) it was inactive: 0.05; in that of C12orf29 (UniProt Q8N999), inactive: 0.09; in that of CAB39 (UniProt Q9Y376), inactive: 0.031.

For the target BTRC (UniProt Q9Y297), the log2 fold change is inactive: -0.138.

Consider BUB1B isoform 3 (UniProt O60566), for which the log2 fold change was inactive: -0.13.

For the target BTN2A1 (UniProt Q7KYR7), the log2 fold change is inactive: 0.017.

For the target C12orf73 (UniProt Q69YU5), the log2 fold change is inactive: 0.064. In the case of C9orf78 (UniProt Q9NZ63) it was inactive: 0.071. In the case of C1orf52 (UniProt Q8N6N3) it was inactive: 0.015.

With CAD (UniProt P27708), the log2 fold change was active: -0.386.
